Results deposited as PubChem BioAssay AID652272 (Drosophila RNAi Screening Center, 2013)
In all, the deposit lists about 21,000 reagents; this is a random part of those with a known target gene and a result. Of all reagents, 503 (2.4%) got an active call. 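Raw plate light values, not normalised; calls rest on replicate z-scores that were not deposited; hits include reporter decreases as well as increases.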 Entries without a mark were called inactive. The numbers tell different reagents against one gene apart. Not given: the amount of reagent, the time to read-out.

- Assay: 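Finding fly genes that regulate Hedgehog signal transduction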 (primary screen)
- Cells: Drosophila clone 8 (Cl8) cells
- Reagent: long dsRNA against Drosophila genes
- Read-out: 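Firefly light from a Hedgehog-responsive ptc promoter reporter and Renilla reference light, both read on a plate reader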
- Scale: firefly Hh reporter signal: higher = more ptc reporter light; Renilla reference signal: higher = more Renilla control light
- Call rule: 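Hit when the z-score averaged over two replicates is under -2 or over +3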
- Meaning of the calls: active = hit: reporter lowered or raised; inactive = not a hit

Mtch: firefly Hh reporter signal, replicate 1 = 95031; firefly Hh reporter signal, replicate 2 = 68112; Renilla reference signal, replicate 1 = 4333; Renilla reference signal, replicate 2 = 2832
CG12661: firefly Hh reporter signal, replicate 1 = 65477; firefly Hh reporter signal, replicate 2 = 2.08e5; Renilla reference signal, replicate 1 = 2628; Renilla reference signal, replicate 2 = 8121
CG8475: firefly Hh reporter signal, replicate 1 = 74018; firefly Hh reporter signal, replicate 2 = 68301; Renilla reference signal, replicate 1 = 3042; Renilla reference signal, replicate 2 = 2960
ckd: firefly Hh reporter signal, replicate 1 = 1.29e5; firefly Hh reporter signal, replicate 2 = 74145; Renilla reference signal, replicate 1 = 4701; Renilla reference signal, replicate 2 = 5440
CG15546: firefly Hh reporter signal, replicate 1 = 1.38e5; firefly Hh reporter signal, replicate 2 = 1.88e5; Renilla reference signal, replicate 1 = 4021; Renilla reference signal, replicate 2 = 8823
CG11449: firefly Hh reporter signal, replicate 1 = 60301; firefly Hh reporter signal, replicate 2 = 82882; Renilla reference signal, replicate 1 = 1366; Renilla reference signal, replicate 2 = 2632
CG13982: firefly Hh reporter signal, replicate 1 = 66153; firefly Hh reporter signal, replicate 2 = 70490; Renilla reference signal, replicate 1 = 1203; Renilla reference signal, replicate 2 = 6400
CG31189: firefly Hh reporter signal, replicate 1 = 5.69e5; firefly Hh reporter signal, replicate 2 = 79751; Renilla reference signal, replicate 1 = 28309; Renilla reference signal, replicate 2 = 2474
nero: firefly Hh reporter signal, replicate 1 = 82001; firefly Hh reporter signal, replicate 2 = 85760; Renilla reference signal, replicate 1 = 1858; Renilla reference signal, replicate 2 = 2604
CG17065: firefly Hh reporter signal, replicate 1 = 68180; firefly Hh reporter signal, replicate 2 = 2.51e5; Renilla reference signal, replicate 1 = 1622; Renilla reference signal, replicate 2 = 11012
CG11406 #1: firefly Hh reporter signal, replicate 1 = 1.83e5; firefly Hh reporter signal, replicate 2 = 2.50e5; Renilla reference signal, replicate 1 = 3546; Renilla reference signal, replicate 2 = 10349
CG11406 #2: firefly Hh reporter signal, replicate 1 = 1.10e5; firefly Hh reporter signal, replicate 2 = 64688; Renilla reference signal, replicate 1 = 2998; Renilla reference signal, replicate 2 = 5866
CG15577: firefly Hh reporter signal, replicate 1 = 95184; firefly Hh reporter signal, replicate 2 = 2.93e5; Renilla reference signal, replicate 1 = 3891; Renilla reference signal, replicate 2 = 10220
Gmppa: firefly Hh reporter signal, replicate 1 = 1.11e5; firefly Hh reporter signal, replicate 2 = 32085; Renilla reference signal, replicate 1 = 2931; Renilla reference signal, replicate 2 = 1584
Tango1: firefly Hh reporter signal, replicate 1 = 57725; firefly Hh reporter signal, replicate 2 = 44756; Renilla reference signal, replicate 1 = 2827; Renilla reference signal, replicate 2 = 1539
CtsB: firefly Hh reporter signal, replicate 1 = 78765; firefly Hh reporter signal, replicate 2 = 96102; Renilla reference signal, replicate 1 = 1910; Renilla reference signal, replicate 2 = 2632
upd2: firefly Hh reporter signal, replicate 1 = 1.13e5; firefly Hh reporter signal, replicate 2 = 3.36e5; Renilla reference signal, replicate 1 = 2582; Renilla reference signal, replicate 2 = 14640
Mfe2: firefly Hh reporter signal, replicate 1 = 74139; firefly Hh reporter signal, replicate 2 = 81629; Renilla reference signal, replicate 1 = 1824; Renilla reference signal, replicate 2 = 1793
holn1: firefly Hh reporter signal, replicate 1 = 1.59e5; firefly Hh reporter signal, replicate 2 = 1.13e5; Renilla reference signal, replicate 1 = 5802; Renilla reference signal, replicate 2 = 4842
fest: firefly Hh reporter signal, replicate 1 = 45059; firefly Hh reporter signal, replicate 2 = 45472; Renilla reference signal, replicate 1 = 1324; Renilla reference signal, replicate 2 = 3753
Dnaaf5: firefly Hh reporter signal, replicate 1 = 54800; firefly Hh reporter signal, replicate 2 = 2.22e5; Renilla reference signal, replicate 1 = 11792; Renilla reference signal, replicate 2 = 3993

2 entries already listed, ordered by “firefly Hh reporter signal, replicate 2”, high to low.
holn1: firefly Hh reporter signal, replicate 1 = 1.59e5; firefly Hh reporter signal, replicate 2 = 1.13e5; Renilla reference signal, replicate 1 = 5802; Renilla reference signal, replicate 2 = 4842
fest: firefly Hh reporter signal, replicate 1 = 45059; firefly Hh reporter signal, replicate 2 = 45472; Renilla reference signal, replicate 1 = 1324; Renilla reference signal, replicate 2 = 3753
